Literature values as cited in patent publication US8604009B2, “(20S)-2-methylene-19-nor-22-dimethyl-1α,25-dihydroxyvitamin D3 and (20R)-2-methylene-19-nor-22-dimethyl-1α,25-hydroxyvitamin D3” (Wisconsin Alumni Research Foundation, priority 2010, dated 2013).
Like-named read-outs stand apart in the source and are kept apart here. For at least one compound, name, drawing or mass did not settle the structure.

Assays:
[1] = tested on: HL-60 cells; conditions: data from U.S. Pat. No. 5,843,928 and J. Med. Chem. 1998, 41, 4662; read-out: HL-60 Differentiation (EC50); cited from earlier work
[2] = tested on: bone calcium mobilization; conditions: at 260 pM dosage, data from U.S. Pat. No. 5,843,928 and J. Med. Chem. 1998, 41, 4662, cited from earlier work
[3] = tested on: intestinal calcium transport; conditions: S/M = serosal Ca2+/mucosal Ca2+; at 260 pM dosage; data from U.S. Pat. No. 5,843,928 and J. Med. Chem. 1998, 41, 4662; cited from earlier work

| Structure (SMILES) | EC50 [1] | Net Bone Ca2+ Mobilization (mg/dL) [2] | Net Bone Ca2+ Mobilization ([2]; listed as 2MD 20R isomer) | Net Intestinal Ca2+ Transport (S/M) [3] | Net Bone Ca2+ Mobilization ([2]; listed as 2MD 20S isomer) |
| --- | --- | --- | --- | --- | --- |
| C=C1C(O)CC(=CC=C2CCCC3(C)C2CCC3C(C)CCCC(C)(C)O)CC1O [2MD (20R)] | 4.2 nM | 4.5^4 mg/dL | 4.5 mg/dL | −0.6^4 S/M |  |
| C=C1C(O)CC(=CC=C2CCCC3(C)C2CCC3C(C)CCCC(C)(C)O)CC1O [2MD (20S), 2-methylene-19-nor-1α,25-dihydroxyvitamin D3] | 0.15 nM | 9.3^4 mg/dL |  | −0.9^4 S/M | 9.3 mg/dL |
